Data reported in article PMC5576923.
These are yes or no findings as the source states them, for the method shown. In cells and extracts the contact can be indirect. Some results given as binding are weak or reduced against the parent protein; the word gives no strength.

Chains of the proteins cited; added tags and fusions are not shown.
UniProt P49407: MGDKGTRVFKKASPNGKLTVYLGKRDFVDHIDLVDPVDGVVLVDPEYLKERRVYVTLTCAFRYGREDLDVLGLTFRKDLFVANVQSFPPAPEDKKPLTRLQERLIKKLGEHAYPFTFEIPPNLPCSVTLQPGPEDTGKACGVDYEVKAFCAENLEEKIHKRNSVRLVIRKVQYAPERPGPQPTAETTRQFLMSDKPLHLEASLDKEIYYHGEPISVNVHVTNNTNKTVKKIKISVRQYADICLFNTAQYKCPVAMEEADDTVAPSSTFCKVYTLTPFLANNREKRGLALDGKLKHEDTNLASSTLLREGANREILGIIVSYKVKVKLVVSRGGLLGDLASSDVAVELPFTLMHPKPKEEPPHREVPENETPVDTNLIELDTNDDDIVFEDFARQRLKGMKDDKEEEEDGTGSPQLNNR
UniProt Q5T5U3: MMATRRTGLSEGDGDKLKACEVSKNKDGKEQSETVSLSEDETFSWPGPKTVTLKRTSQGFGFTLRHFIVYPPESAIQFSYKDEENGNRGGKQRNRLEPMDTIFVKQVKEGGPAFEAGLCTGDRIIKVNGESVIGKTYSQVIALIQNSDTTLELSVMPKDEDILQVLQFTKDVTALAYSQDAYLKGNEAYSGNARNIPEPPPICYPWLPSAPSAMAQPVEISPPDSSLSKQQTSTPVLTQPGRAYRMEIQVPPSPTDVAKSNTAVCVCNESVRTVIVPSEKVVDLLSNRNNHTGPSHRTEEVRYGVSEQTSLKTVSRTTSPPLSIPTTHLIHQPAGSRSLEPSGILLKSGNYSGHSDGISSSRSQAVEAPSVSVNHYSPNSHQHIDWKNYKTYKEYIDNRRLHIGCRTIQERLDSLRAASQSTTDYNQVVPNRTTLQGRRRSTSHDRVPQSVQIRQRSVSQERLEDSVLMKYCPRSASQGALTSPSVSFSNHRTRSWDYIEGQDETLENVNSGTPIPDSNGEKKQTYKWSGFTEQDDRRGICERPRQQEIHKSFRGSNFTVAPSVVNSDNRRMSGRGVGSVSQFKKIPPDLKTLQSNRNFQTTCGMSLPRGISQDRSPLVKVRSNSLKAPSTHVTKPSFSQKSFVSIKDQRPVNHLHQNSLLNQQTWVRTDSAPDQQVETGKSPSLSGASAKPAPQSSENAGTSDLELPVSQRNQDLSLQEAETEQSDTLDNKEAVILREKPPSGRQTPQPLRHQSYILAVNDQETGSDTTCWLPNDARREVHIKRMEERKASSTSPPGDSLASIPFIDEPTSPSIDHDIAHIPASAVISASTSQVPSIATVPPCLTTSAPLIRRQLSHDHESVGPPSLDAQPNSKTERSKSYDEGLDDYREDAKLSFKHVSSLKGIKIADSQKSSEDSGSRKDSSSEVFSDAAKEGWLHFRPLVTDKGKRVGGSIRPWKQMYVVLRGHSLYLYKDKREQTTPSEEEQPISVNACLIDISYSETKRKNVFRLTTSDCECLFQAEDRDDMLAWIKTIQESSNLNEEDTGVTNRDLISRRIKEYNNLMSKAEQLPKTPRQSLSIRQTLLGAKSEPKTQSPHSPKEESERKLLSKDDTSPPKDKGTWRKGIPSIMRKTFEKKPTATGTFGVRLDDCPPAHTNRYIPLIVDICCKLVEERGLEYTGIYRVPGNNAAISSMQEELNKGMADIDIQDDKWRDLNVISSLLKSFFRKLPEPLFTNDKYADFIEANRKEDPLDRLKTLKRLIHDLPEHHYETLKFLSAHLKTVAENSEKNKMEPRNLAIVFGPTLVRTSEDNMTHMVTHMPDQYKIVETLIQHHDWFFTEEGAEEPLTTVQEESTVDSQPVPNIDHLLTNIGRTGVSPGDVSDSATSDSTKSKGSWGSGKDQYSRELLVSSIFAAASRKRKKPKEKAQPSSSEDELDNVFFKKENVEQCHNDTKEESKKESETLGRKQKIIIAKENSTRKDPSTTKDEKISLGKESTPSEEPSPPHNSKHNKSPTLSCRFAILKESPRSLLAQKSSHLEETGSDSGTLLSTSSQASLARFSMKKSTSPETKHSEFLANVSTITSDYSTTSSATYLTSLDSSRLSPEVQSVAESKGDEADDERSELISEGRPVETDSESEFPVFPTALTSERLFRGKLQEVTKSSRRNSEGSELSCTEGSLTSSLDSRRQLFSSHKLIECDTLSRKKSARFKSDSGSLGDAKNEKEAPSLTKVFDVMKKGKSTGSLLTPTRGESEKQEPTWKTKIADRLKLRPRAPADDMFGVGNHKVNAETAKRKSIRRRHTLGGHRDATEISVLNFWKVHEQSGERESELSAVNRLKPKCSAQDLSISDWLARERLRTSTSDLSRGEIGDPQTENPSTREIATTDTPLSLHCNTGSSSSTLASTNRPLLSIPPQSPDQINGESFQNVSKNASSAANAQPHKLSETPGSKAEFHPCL

What was measured:
[1] = target: β-Arrestin1 (human (endogenous in Caco-2 and HCT116)) (UniProt P49407); assay: co-IP; membrane fractions of ShPTEN and PTEN-/- cells after transfection with GFP-EV, C2, C2-MCBR3, wt PTEN or PTEN-MCBR3; β-Arrestin1 bait, ARHGAP21 blotted; normalised against total ARHGAP21 in the membrane fraction
[2] = target: β-Arrestin1 (human (endogenous in Caco-2 and HCT116)) (UniProt P49407); assay: co-IP; Caco-2 or HCT116 cells treated with 10 μM pep24 or 10 μM scrambled control peptide for 24 hr; β-Arrestin1 bait, ARHGAP21 blotted (the pair that is blocked)
[3] = target: β-Arrestin1 (human (endogenous in Caco-2 and HCT116)) (UniProt P49407); assay: co-IP; whole-cell lysates (1% Triton X-100, 50 mM NaCl, Tris pH 7.5) of Caco-2, ShPTEN, HCT116 and PTEN-/- cells, also after transfection with GFP-EV, GFP-C2 or GFP-C2-MCBR3; β-Arrestin1 immunoprecipitated as bait, ARHGAP21 blotted; IgG negative controls; normalised against total ARHGAP21

Measured: binding

ARHGAP21 (from UniProt Q5T5U3 1-1958)
binds: all assays above
